The list shows a part of the results. These are further read-outs of the screen, such as a control signal, another cell line or another target. No call is given for them. The list favours compounds with an active or inconclusive main result. The note in brackets gives the kind of curve behind each potency; many fits are weak.
Test: qHTS Assay to Find Inhibitors of Chronic Active B-Cell Receptor Signaling
Settings: ABC-DLBCL IkBa-CBG/CBR reporter, luminescence ratio (green luciferase fused to IkBa over red control in TMD8 lymphoma cells), 4 h
Summary of the method: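 Doxycycline induced both beetle luciferases in TMD8 lymphoma cells; IKK-driven degradation limits the IkappaBalpha-fused green signal, while red luminescence normalises for cell number and nonspecific effects. Compounds tested up to 46 uM, 4 hrs.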

[1] = measured here: CBR red luminescence, cell number
[2] = measured here: IkBa-CBG green luminescence

Row | SMILES | AC50 [1] | AC50 [2]
1 | Cc1ccc(C(=O)Nc2nccs2)s1 | 2.24 µM [falling, full curve, poor fit] | 14.1 µM [rising, partial curve, poor fit]
2 | COC(C(=O)Nc1ccc(S(=O)(=O)Nc2ccc(F)cc2)cc1)c1ccccc1 (configuration not stated) | 29.1 µM [falling, partial curve, poor fit] | 
3 | COCCn1cc(C(=O)NCCCN2CCC(C)CC2)c2c3ccccc3n(C)c2c1=O | 13 µM [rising, partial curve, poor fit] | 
4 | Cc1ccccc1C(=O)Nc1ccc2c(c1)OCCO2 | 7.94 µM [falling, partial curve, poor fit] | 
5 | CNS(=O)(=O)c1cccc(C(=O)OCC(=O)NCc2ccccc2)c1 | 14.6 µM [rising, single point] | 
6 | CCOC(=O)c1c(NC(=O)c2ccc(S(=O)(=O)N3CCCC(C)C3)cc2)sc2c1CC(C)(C)NC2(C)C (configuration not stated) | 25.1 µM [falling, single point] | 
7 | O=C(Oc1ccccc1)c1ccc(COC(=O)c2cnccn2)cc1 | 25.9 µM [rising, single point] | 
8 | COc1ccc(OC)c(N/C=C/C(=C(C#N)C#N)N(C)C)c1 | 35.5 µM [falling, single point] | 
9 | CCCCC(=O)Nc1ccc(NC(=S)NC(=O)CCCCl)cc1OC | 9.2 µM [falling, partial curve] | 
10 | Cc1nc2c(=O)n(C)c(=O)n(C)c2nc1Cl | 6.51 µM [falling, partial curve] | 32.6 µM [rising, partial curve, poor fit]
11 | O=C(OCC(=O)N1CCN(c2ccc(F)cc2)CC1)c1cnc2ccccc2n1 | 13 µM [rising, partial curve, poor fit] | 
12 | CN(C)C(CNC(=O)c1cc(S(=O)(=O)N(C)c2ccccc2)ccc1Cl)c1cccs1 (configuration not stated) | 35.5 µM [falling, single point] | 
13 | O=C(NC1CC(=O)N(c2ccc(F)cc2)C1)c1ccc(S(=O)(=O)N2CCOCC2)cc1 (configuration not stated) | 22.4 µM [rising, single point] | 
14 | Cc1cc(/C=C(\C#N)C(=O)NCCc2c[nH]c3ccccc23)c(C)n1C | 20.6 µM [falling, single point] | 
15 | O=C(O)c1cccc(-c2nc3ccccc3[nH]2)c1 | 8.2 µM [falling, partial curve] | 
16 | N#C/C(=C/c1ccc(Br)s1)C(=O)NCCc1c[nH]c2ccccc12 | 29.1 µM [falling, single point] | 
17 | Fc1ccccc1COc1ccc(Br)cc1CNCc1ccncc1 | 25.9 µM [falling, single point] | 
18 | Cc1cc(C)n(-c2ccc(N3CCOCC3)nn2)n1 | 23.1 µM [falling, single point] | 
19 | CC(C)C[C@@H](CO)N(Cc1ccccc1)S(=O)(=O)N(Cc1ccccc1)[C@H](CO)CC(C)C | 32.6 µM [falling, single point] | 
20 | C=CCNC(=O)COC(=O)c1nc2nccc(C)n2n1 | 35.5 µM [falling, single point] | 

Row | SMILES | AC50 [1] | AC50 [2]
21 | Cc1ccc(NC(=O)c2cc(S(=O)(=O)N3CCC4(CC3)OCCO4)ccc2F)cc1 | 2.06 µM [falling, full curve, poor fit] | 
22 | CCCC(=O)Nc1ccc(NC(=O)c2cccc(OC)c2)cn1 | 12.6 µM [falling, partial curve, poor fit] | 
23 | CC1CCC2C(=O)N(c3cccc(C(=O)Nc4ccc(F)cc4)c3)C(=O)C2C1 (configuration not stated) | 25.1 µM [falling, single point] | 
24 | O=C(/C=C/c1c(Cl)nc2ccccn12)Nc1ccc(F)cc1 | 14.1 µM [falling, partial curve, poor fit] | 
25 | CCOC(=O)c1c(-c2cccc(C)c2)csc1NC(=O)c1c(-c2ccccc2)noc1C |  | 14.1 µM [rising, partial curve, poor fit]
26 | NC(=S)NC1CC2CC1C1C=CCC21 (configuration not stated) | 4.47 µM [falling, full curve, poor fit] | 
27 | Cc1ccc2nc(-c3ccccc3)cc(C(=O)NNC(=O)c3csc(N4CCOCC4)n3)c2c1 | 6.51 µM [rising, single point] | 
28 | CC(C)(C)c1ccc(OCC(=O)NN2Cc3ccccc3C2=N)cc1 | 4.47 µM [falling, partial curve, poor fit] | 
29 | COc1cc(CN(CCc2c(C)[nH]c3ccc(C)cc23)C(=S)NC(C)(C)C)cc(OC)c1OC | 29.1 µM [falling, single point] | 
30 | COc1ccc(-c2ccc(SC)nn2)cc1 | 15.8 µM [falling, single point] | 
31 | Cc1ccccc1C(=O)Oc1cc(N)n(S(C)(=O)=O)n1 | 25.1 µM [falling, single point] | 
32 | COc1ccc(Nc2nnc(C)c3ccccc23)cc1C(N)=O | 12.6 µM [falling, partial curve, poor fit] | 
33 | COc1ccccc1NC(=O)CSc1nnc(COc2ccc(Cl)cc2)n1Cc1ccco1 | 35.5 µM [falling, single point] | 
34 | CCN(C(=O)c1cccs1)c1nc(-c2ccc(OC)cc2)cs1 | 3.55 µM [rising, full curve, poor fit] | 
35 | CCCCOc1ccc(-c2c(C#N)c(N)nc(SCC(N)=O)c2C#N)cc1 | 29.1 µM [falling, single point] | 
36 | CSc1ccc(-c2c(C#N)c(N)nc3c2CCCC3)cc1 | 12.6 µM [rising, partial curve, poor fit] | 
37 | CCN(CC)c1nc(Nc2ccc(Cl)cc2)nc(OCC#N)n1 | 0.355 µM [rising, full curve, poor fit] | 
38 | COc1ccc(C(=O)Oc2c(C)occc2=O)cc1OC | 29.1 µM [rising, single point] | 
39 | O=C(NCc1ccc2c(c1)OCO2)C12CN(Cc3ccccc3)CC1C(c1cccc([N+](=O)[O-])c1)=NO2 (configuration not stated) | 29.1 µM [rising, single point] | 
40 | COc1ccccc1NC(=O)CSc1nnc(Cn2nnc(-c3ccccc3)n2)n1-c1ccccc1 | 0.731 µM [rising, partial curve, poor fit] | 

Whole records as entered above:
O=C(/C=C/c1c(Cl)nc2ccccn12)Nc1ccc(F)cc1 in the list: AC50 [1]: 14.1 µM [falling, partial curve, poor fit]
O=C(NCc1ccc2c(c1)OCO2)C12CN(Cc3ccccc3)CC1C(c1cccc([N+](=O)[O-])c1)=NO2 (configuration not stated) in the list: AC50 [1]: 29.1 µM [rising, single point]
COc1ccccc1NC(=O)CSc1nnc(Cn2nnc(-c3ccccc3)n2)n1-c1ccccc1 in the list: AC50 [1]: 0.731 µM [rising, partial curve, poor fit]

— PubChem BioAssay AID493014 (National Center for Advancing Translational Sciences (NCATS), 2011)
